# Data reported in the supplement of paper PMC8728848.
# This is one part of the list.
# B1: DCIR1 (Mus musculus), Q9QZ15 (protein)
# chain: MASEITYAEVKFKNESNSLHTYSESPAAPREKPIRDLRKPGSPSLLLTSLMLLLLLLAITFLVAFIIYFQKYSQLLEEKKAAKNIMHNELNCTKSVSPMEDKVWSCCPKDWRLFGSHCYLVPTVSSSASWNKSEENCSRMGAHLVVIQSQEEQDFITGILDTHAAYFIGLWDTGHRQWQWVDQTPYEESITFWHNGEPSSGNEKCATIIYRWKTGWGWNDISCSLKQKSVCQMKKINL
# Columns and labels:
# Assay in all cases: glycan array binding signal (z-score within array); higher = stronger binding
# Conditions in all cases: glycan notation: IUPAC condensed, linker removed
# [1] = target: Neu5Gc(a2-8)Neu5Gc(a2-3)Gal(b1-4)GlcNAc(b1-3)Gal(b1-4)GlcNAc
# Method in brief: (§1)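 From the Consortium for Functional Glycomics database, 3228 arrays were curated, keeping only those whose protein sequence was available. Binding is given as a within-array Z-score averaged across arrays sharing a protein sequence and across linkers. Negative Z-scores can be read as non-binding.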
# [2] = target: Neu5Gc(a2-8)Neu5Gc(a2-6)Gal(b1-4)GlcNAc
# Method in brief: as §1
# [3] = target: Neu5Gc(b2-6)Gal(b1-4)GlcNAc
# Method in brief: as §1
binder,measurement,setting,value
B1,glycan array binding signal (z-score),[1],-1.03
same,glycan array binding signal (z-score),[2],-0.802
same,glycan array binding signal (z-score),[3],-0.579
